Assay results as given in article PMC10484922, “Discovery of a selective and biologically active low-molecular weight antagonist of human interleukin-1β” (Nature Communications, 2023).
Results are given in words; binding and its absence hold for the method and conditions named. Some binding calls cover weakened binding; strength is not graded here. Sequences can lack the tags named with a protein.

Amino acid sequences for entries named in this document (tags omitted). Residues count along the entry.
UniProt P14778, residues 18-332: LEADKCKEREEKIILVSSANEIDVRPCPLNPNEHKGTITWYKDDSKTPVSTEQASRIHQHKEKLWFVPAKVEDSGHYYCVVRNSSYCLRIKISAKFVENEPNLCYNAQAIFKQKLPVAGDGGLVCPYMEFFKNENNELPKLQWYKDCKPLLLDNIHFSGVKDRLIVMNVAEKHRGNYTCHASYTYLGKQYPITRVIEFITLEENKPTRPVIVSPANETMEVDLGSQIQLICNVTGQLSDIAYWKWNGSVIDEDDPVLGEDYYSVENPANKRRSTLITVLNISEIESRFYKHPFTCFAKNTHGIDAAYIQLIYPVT

Biological target: hIL-1R1 (1–332; Alexa 647 labeled) (human) (UniProt P14778)
Test: AlphaScreen or HTRF; TR-FRET: His-tagged IL-1β or IL-1α […], hIL-1R1 (1–332; Alexa 647 labeled) 50 nM, anti-His-Europium W1024 1 nM; 20 mM Tris pH 7.5, 150 mM NaCl, 1 mM EDTA, 0.5% Pluronic, 0.02% BSA; room temperature; with or without graded concentrations of low-molecular weight compounds; both purified

- binding: binds
B1: recombinant His-tagged IL-1α (ligand, UniProt P01583 113-271)
chain: SAPFSFLSNVKYNFMRIIKYEFILNDALNQSIIRANDQYLTAAALHNLDEAVKFDMGAYKSSKDDAKITVILRISKTQLYVTAQDEDQPVLLKEMPEIPKTITGSETNLLFFWETHGTKNYFTSVAHPNLFIATKQDYWVCLAGGPPSITDFQILENQA
